Reference: PubChem BioAssay AID540276 (National Center for Advancing Translational Sciences (NCATS), 2011)
In all, about 300,000 compounds went through this assay and about 5,400 (1.8%) were called active. This list was built around the results that the source calls inconclusive (neither active nor inactive); the mix of calls is not that of the screen. The call rests on the fitted dose curve; tested in HEK293 cells. Where the call is inconclusive, the potency comes from a doubtful curve fit.

Experiment: qHTS for inhibitors of binding or entry into cells for Marburg Virus
Settings: Marburg virus pseudotyped entry inhibition, cell reporter; activity change, negative = inhibition: at 37.8 µM (top of the series) unless noted
On the % scale 0 is the no-effect control and ±100 the full control effect; potency means the concentration at half of the fitted maximal effect.

Structure (SMILES)	Potency	activity change, negative = inhibition
Cc1ccc(OCCCCCCN2CCNCC2)cc1	active: 14.1 µM	
Cc1ccc(CN2CC(C(=O)NNC(=O)c3ccc(F)cc3)CC2=O)cc1 (stereo unspecified)	inactive	
COc1ccccc1C(=O)N1CCC(N2CCN(c3ccccc3)CC2)CC1	inactive	
Cc1ccc(-c2noc(-c3ccno3)n2)cc1	inactive	
CN1CCN(c2ccc(NC(=O)c3ccc4c(c3)[nH]c(=O)n4Cc3ccc(F)cc3)cc2)CC1	inconclusive: 8.91 µM [inhibitor, partial curve, poor fit]	
CCCOc1c(Br)cc(/C=N/O)cc1OC	active: 10 µM	
COc1ccc(/C=C\C(=O)c2c(O)ccc3c(C)cc(=O)oc23)cc1OC	inconclusive: 35.5 µM [inhibitor, single point]	
Cc1cccc(/C=C2/SC(=O)N(Cc3ccccc3Cl)C2=O)n1	inactive	
O=C(Nc1ccc(S(=O)(=O)Nc2ncccn2)cc1)c1cccnc1	inconclusive: 25.9 µM [activator, single point]	
O=C1C(C=NCc2cccnc2)=C(O)c2ccccc21	inactive	
COc1cc(/C=C(\C#N)C(=O)Nc2ccccc2)ccc1OCCN1CCOCC1	inactive	
CCOC(=O)c1ccc(-c2cc(C)no2)[nH]1	inactive	
COc1ccc(C2c3c(-c4cc(Cl)c(C)cc4O)n[nH]c3C(=O)N2Cc2cccnc2)cc1OC (stereo unspecified)	inactive	
CCN(CC)c1nc2nonc2nc1N(CC)CC	inconclusive: 35.5 µM [inhibitor, single point]	
CCOc1ccc(N(Cc2cc3cc(C)ccc3[nH]c2=O)S(=O)(=O)c2ccccc2)cc1	inconclusive: 35.5 µM [activator, single point]	
NC(=O)c1c(NC(=O)c2ccccc2F)sc2c1CCCC2	inconclusive: 7.08 µM [inhibitor, partial curve, poor fit]	
CCn1c(=N)n(CC(=O)c2ccc(OC)cc2)c2ccccc21	active: 10 µM	
C=CCn1c(-c2cc(-c3ccccc3)sc2N)n[nH]c1=S	inconclusive: 6.31 µM [activator, partial curve, poor fit]	
O=C1CSC(=O)N1CCOCCN1C(=O)CSC1=O	inconclusive: 35.5 µM [inhibitor, single point]	
O=C(COc1ccc(S(=O)(=O)N2CCCC2)cc1Cl)N1CCN(c2ccccc2)CC1	inconclusive: 29.1 µM [inhibitor, single point]	
COc1ccc(CCN2C(=O)c3cccc4c(C(=O)N5CCCCC5)ccc(c34)C2=O)cc1OC	inconclusive: 7.94 µM [inhibitor, partial curve, poor fit]	
COc1ccc(Br)cc1C(=O)Nc1cc(C)cc(C)c1	inactive	
COc1ccccc1N(Cc1ccccc1)S(=O)(=O)c1cccc(C(=O)Nc2ccc(C(C)=O)cc2)c1	inactive	
Cc1cc(N2CCOCC2)nc(SCc2ccc(Cl)cc2Cl)n1	inconclusive: 0.0891 µM [inhibitor, full curve, poor fit]	
CC1(C)Cc2noc(N)c2C(C)(C)N1OC(=O)c1ccccc1	inactive	
COc1ccc(Nc2ccccc2N)cc1	inconclusive: 5.01 µM [inhibitor, single point]	

Looked up above:
For Potency, CCN(CC)c1nc2nonc2nc1N(CC)CC reads inconclusive: 35.5 µM [inhibitor, single point]
For Potency, C=CCn1c(-c2cc(-c3ccccc3)sc2N)n[nH]c1=S reads inconclusive: 6.31 µM [activator, partial curve, poor fit]
For Potency, COc1ccc(/C=C\C(=O)c2c(O)ccc3c(C)cc(=O)oc23)cc1OC reads inconclusive: 35.5 µM [inhibitor, single point]
For Potency, O=C1CSC(=O)N1CCOCCN1C(=O)CSC1=O reads inconclusive: 35.5 µM [inhibitor, single point]

More structures

Structure (SMILES)	Potency	activity change, negative = inhibition
COc1ccccc1-c1noc(CCC(=O)Nc2cccc(C)c2)n1	inactive	
N=c1ccn(Cc2cccc(F)c2)cc1	inactive	
COc1cc(C(=O)Nc2ccc(N(C)C)cc2)cc(OC)c1OC	inactive	
O=C(CN1C(=O)C2(OCCO2)c2ccccc21)c1ccc(Cl)cc1	inactive	
COc1ccccc1Nc1nc(C)nc2c1oc1ccccc12	inconclusive: 2.82 µM [inhibitor, single point]	
CCN(CC)c1ccc(NC(=O)CN2C(=O)CC(C)(C)S(=O)(=O)c3ccccc32)c(C)c1	inactive	
CC(=O)CC(C)(C)Nc1nc2ccc([N+](=O)[O-])cc2o1	inactive	
Fc1cccc(Cl)c1Cn1nnc(-c2ccc3c(c2)OCO3)n1	inactive	
CCOC(=O)c1c(C)[nH]c(C(=O)COC(=O)CNC(=O)c2ccccc2Cl)c1C	inactive	
CCOC(=O)c1cnc(Nc2nc3ccccc3o2)nc1C	active: 4.11 µM	
O=C(c1ccccc1[N+](=O)[O-])N1CCN(c2ccc(N3CCOCC3)nn2)CC1	inconclusive: 35.5 µM [activator, single point]	
COc1cc(C(=O)Nc2nccs2)c(Br)c(OC)c1OC	inconclusive: 10 µM [inhibitor, partial curve, poor fit]	
Cc1cc(NC(=O)CCC2CCCCC2)no1	inactive	
CNC(=S)N1CCn2cccc2C1c1cccnc1 (stereo unspecified)	inactive	
Cc1c(C(=O)OCC(=O)NCc2ccc3c(c2)OCO3)cccc1[N+](=O)[O-]	inconclusive: 0.631 µM [activator, full curve, poor fit]	
CCC(C(=O)Nc1cc(Cl)c(OC)cc1OC)c1ccccc1 (stereo unspecified)	inconclusive: 35.5 µM [inhibitor, single point]	
O=C1c2ccccc2-c2onc3c(N4CCN(CCO)CC4)cc(N4CCN(C(=O)c5ccco5)CC4)c1c23	inconclusive: 17.8 µM [inhibitor, single point]	
CCN(CC)CCCN(C(=O)c1ccc(OC)cc1)c1nc(-c2ccc(OC)cc2)cs1	inconclusive: 3.98 µM [inhibitor, full curve, poor fit]	
Cc1ccc2[nH]c(O)c(N=NC(=O)C(C)n3cnc4ccccc4c3=O)c2c1 (stereo unspecified)	inconclusive: 1.12 µM [activator, full curve, poor fit]	
Cc1ccc(Cn2ncc3c(N4CCCC4)ncnc32)cc1	inactive	
COc1ccc(/C=N/c2oc(-c3ccccc3)cc2C#N)cc1OC		inconclusive: 51.6% [activator]
CCOC(=O)C1(CCCc2ccccc2)CCN(C(=O)CCc2cnccn2)CC1	inconclusive: 8.91 µM [inhibitor, partial curve, poor fit]	
Cc1cc(C)cc(C(N)=Nc2cccc(C#N)c2)c1	inconclusive: 8.91 µM [inhibitor, partial curve, poor fit]	
CN1C(=O)/C(=C/c2cccc([N+](=O)[O-])c2)C(=O)N1c1ccccc1	inactive	
NS(=O)(=O)c1ccc(NC(=O)CSc2nc3ccccc3[nH]2)cc1	inactive	
COc1ccc(NC(=O)Nc2ccncc2)c(OC)c1	inactive	

Structure (SMILES)	Potency	activity change, negative = inhibition
N/C(=N\OC(=O)c1ccc(=O)n(Cc2ccccc2)c1)c1ccccn1	inconclusive: 35.5 µM [inhibitor, single point]	
O=C(Nc1nc(-c2ccccc2)cs1)C1CCCN(S(=O)(=O)c2cccc([N+](=O)[O-])c2)C1 (stereo unspecified)	inconclusive: 0.82 µM [inhibitor, partial curve, poor fit]	
CCOC(CNC(=O)c1ccc2c(c1)ncn2-c1cccc(F)c1)OCC	inconclusive: 17.8 µM [activator, partial curve, poor fit]	
CCOCCCNC(=O)C(c1ccccc1)N(Cc1ccc2c(c1)OCO2)C(=O)c1ccccc1O (stereo unspecified)	inactive	
O=C(CCc1nc2ccccc2c(=O)[nH]1)OCC(=O)c1ccc(C2CCCCC2)cc1	inconclusive: 0.316 µM [activator, full curve, poor fit]	
Cc1ccc(NC(=O)c2cn(-c3ccccc3)nc2-c2ccccc2)cc1	inconclusive: 35.5 µM [inhibitor, single point]	
N=C(N)SCc1nc2ccccn2c1Br	inconclusive: 22.4 µM [inhibitor, single point]	
CCn1c(SCC(=O)N/N=C/c2cc(OC)c(O)c(OC)c2)nc2ccccc21	inactive	
Cc1c(CCC(=O)NCCCn2ccnc2)c(=O)oc2c(C)c3occ(C(C)(C)C)c3cc12	inconclusive: 14.1 µM [inhibitor, single point]	
COc1ccc(-n2c(C)ccc2C)c([N+](=O)[O-])c1	inconclusive: 6.31 µM [inhibitor, full curve, poor fit]	
Cc1ccc(OCC(=O)N/N=C/c2ccncc2)cc1	inactive	
Cc1c(C(=O)OC(C)C)sc(N)c1C(=O)OC(C)C	inactive	
CC(=O)C1=C(O)C(CSCc2ccccc2)N(C)C1=O (stereo unspecified)	inconclusive: 11.2 µM [activator, single point]	
CCCCn1c(O)c(N=NC(=O)c2ccco2)c2ccccc21	inconclusive: 2.82 µM [activator, partial curve, poor fit]	
CCC(NC(=O)C1(C)CC1(Br)Br)c1ccc(C)cc1 (stereo unspecified)	inactive	
O=C(Nc1nccs1)C1CCN(S(=O)(=O)c2c(Cl)cccc2Cl)CC1	inconclusive: 35.5 µM [inhibitor, single point]	
CN(Cc1cccnc1)C(=O)c1cc(COc2ccc3c(c2)CCCC3)on1	inconclusive: 35.5 µM [inhibitor, single point]	
CCN(CC)CCOC(=O)c1ccc(NC(=O)CSc2cc(=O)n(CC)c3ccccc23)cc1	inconclusive: 35.5 µM [inhibitor, single point]	
CC(C=Cc1ccccc1)=NNS(=O)(=O)c1ccc([N+](=O)[O-])cc1	inactive	
CC(=O)c1nnn(-c2nc(N)nc(N(c3ccccc3)c3ccccc3)n2)c1C	inactive	
COc1ccccc1NC(=O)c1c(C)cc(C)nc1SCC(=O)Nc1cccc(C)c1	inactive	
COc1cccc(-c2cc(C(=O)Nc3ccc([N+](=O)[O-])cn3)c3ccccc3n2)c1	inconclusive: 3.55 µM [inhibitor, full curve]	
CCCNC(=S)N1CCC(C(=O)c2ccc3c(c2)OCCO3)CC1	inconclusive: 0.562 µM [activator, full curve, poor fit]	
C=CCOc1ccc(C2c3c(oc4ccc(C)cc4c3=O)C(=O)N2CCCN2CCOCC2)cc1 (stereo unspecified)	inconclusive: 14.1 µM [inhibitor, partial curve, poor fit]	
